Reference: patent US20240294551A1 (AMGEN INC., priority 2022, published 2024)
At least one compound was matched to its structure with a doubt left.

Chains of the proteins cited; added tags and fusions are not shown. A line that says so, or that is headed by a name, gives the form on record, which may keep a tag or linker.
UniProt P01116, other isoform, or with tags, fused parts or gaps G12D: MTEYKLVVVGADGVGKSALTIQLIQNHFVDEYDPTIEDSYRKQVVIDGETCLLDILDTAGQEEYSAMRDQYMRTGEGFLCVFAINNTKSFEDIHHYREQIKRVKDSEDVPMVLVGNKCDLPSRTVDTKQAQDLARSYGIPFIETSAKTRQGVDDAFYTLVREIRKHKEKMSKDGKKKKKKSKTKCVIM

Molecular target: His-tagged KRAS G12D protein (Homo sapiens (Human), UniProt P01116, G12D)
Experiment: KRAS G12D TR-FRET Assay
Details: read-out: KRAS G12D Binding IC50
Description: Compounds of interest were prepared in a dose-response titration in DMSO, and 80 nL were added via Labcyte Echo to each well of a 384-well plate (Perkin Elmer 6008280). The His-tagged KRAS G12D protein (Amgen) was diluted to 20 nM in Assay Buffer (20 mM HEPES, pH 7.4, 10 mM MgCl2, 50 mM NaCl, 0.1% BSA, 0.01% Tween-20, 10 μM GDP) and 2 μL was added to the appropriate wells of the 384-well plate. The plate was incubated for 30 minutes at room temperature. Biotinylated KRPep-2d substrate (Amgen) was diluted to 20 nM in Assay Buffer and 2 μL was added to all wells and incubated for 1 hour at room temperature. Detection Reagent (0.4 nM LANCE Eu-W1024 Anti-6×His (Perkin Elmer AD0401), 5 nM streptavidin-d2 (Cisbio 610SADLA)) was prepared in Assay Buffer, then 4 μL was added to the plate and incubated for 1 hour at room temperature. Plates were read using PerkinElmer EnVision (ex: 320 nm, em1: 665 nm, em2: 615 nm) and em1/em2 data was used to generate curve fits using a 4-parameter logistic model to calculate IC50 values.

Row | SMILES | IC50
1 | CC12COCCN(C1)c1nc(OC[C@@]34CCCN3C[C@H](F)C4)nc3cc(nnc13)-c1c(c(Cl)cc3[nH]ncc13)CCCOC(=O)O2 (stereo in doubt) [Example 362, (26R)-18-chloro-4-(((2R,7aS)-2-fluorotetrahydro-1H-pyrrolo[1,2-a]pyrrol-7a(5H)-yl)methoxy)-26-methyl-23,25,28-trioxa-1,3,5,8,9,14,15-heptaazahexacyclo[24.4.1.1~6,10~.0~2,7~.0~11,19~.0~12,16~]dotriaconta-2,4,6(32),7,9,11,13,16,18-nonaen-24-one] | 8 nM
2 | CC12COCCN(C1)c1nc(OC[C@@]34CCCN3C[C@H](F)C4)nc3cc(nnc13)-c1c(c(Cl)cc3[nH]ncc13)CCCOC(=O)O2 (stereo in doubt) [Example 363, (26S)-18-chloro-4-(((2R,7aS)-2-fluorotetrahydro-1H-pyrrolo[1,2-a]pyrrol-7a(5H)-yl)methoxy)-26-methyl-23,25,28-trioxa-1,3,5,8,9,14,15-heptaazahexacyclo[24.4.1.1~6,10~.0~2,7~.0~11,19~.0~12,16~]dotriaconta-2,4,6(32),7,9,11,13,16,18-nonaen-24-one] | 20200 nM
3 | O=C1OCCc2c(Cl)cc3[nH]ncc3c2-c2ncc3c(nc(OC[C@@]45CCCN4C[C@H](F)C5)nc3c2F)N2CCC[C@@]3(C[C@H](CO3)O1)C2 [Example 314, (1R,4R)-11-chloro-33-fluoro-25-(((2R,7aS)-2-fluorotetrahydro-1H-pyrrolo[1,2-a]pyrrol-7a(5H)-yl)methoxy)-2,5,7-trioxa-14,15,20,24,26,28-hexaazaheptacyclo[26.3.1.1~1,4~.1~19,23~.0~10,18~.0~13,17~.0~22,27~]tetratriaconta-10,12,15,17,19(33),20,22,24,26-nonaen-6-one] | 21 nM
4 | O=C1OCCc2c(Cl)cc3[nH]ncc3c2-c2ncc3c(nc(OC[C@@]45CCCN4C[C@H](F)C5)nc3c2F)N2CCC[C@]3(C[C@@H](CO3)O1)C2 [Example 315, (1S,4S)-11-chloro-33-fluoro-25-(((2R,7aS)-2-fluorotetrahydro-1H-pyrrolo[1,2-a]pyrrol-7a(5H)-yl)methoxy)-2,5,7-trioxa-14,15,20,24,26,28-hexaazaheptacyclo[26.3.1.1~1,4~.1~19,23~.0~10,18~.0~13,17~.0~22,27~]tetratriaconta-10,12,15,17,19(33),20,22,24,26-nonaen-6-one] | 3 nM
